The target in test [1] is T1, human cell surface heparanase on human tumour cells (human) (UniProt Q9Y251).
T1 sequence (looked up): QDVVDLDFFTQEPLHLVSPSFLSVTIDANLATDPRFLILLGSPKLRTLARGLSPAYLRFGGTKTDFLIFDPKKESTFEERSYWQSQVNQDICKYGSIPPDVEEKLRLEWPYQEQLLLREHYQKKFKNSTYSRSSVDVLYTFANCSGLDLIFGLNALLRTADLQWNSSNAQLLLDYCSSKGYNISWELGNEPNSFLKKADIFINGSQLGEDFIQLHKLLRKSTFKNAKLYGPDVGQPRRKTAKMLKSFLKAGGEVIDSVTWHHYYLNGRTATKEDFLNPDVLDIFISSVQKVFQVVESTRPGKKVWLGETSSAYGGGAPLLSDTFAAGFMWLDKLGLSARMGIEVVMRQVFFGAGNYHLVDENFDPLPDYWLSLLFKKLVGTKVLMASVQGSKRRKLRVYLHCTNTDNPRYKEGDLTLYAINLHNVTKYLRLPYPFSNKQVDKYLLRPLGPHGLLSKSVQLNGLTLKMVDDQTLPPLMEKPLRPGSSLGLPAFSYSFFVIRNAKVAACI
Nature of the test: FACS on HT1080 human fibrosarcoma cells, AlexaFluor 488 anti-human IgG, % gated events [panel HT1080 cells].

The target in test [2] is T1, human cell surface heparanase on human tumour cells (human). Nature of the test: FACS on HT1080 and HCT116 cells, antibody 5 or 10 µg per ml, AlexaFluor 488 anti-human IgG.
Test [3] has the same target. Nature of the test: FACS on HCT116 human colorectal tumour cells, AlexaFluor 488 anti-human IgG, % gated events [panel HCT116 cells].
Test [4] concerns the target T2, murine cell surface heparanase on B16F10 AP3 murine melanoma cells (murine) (UniProt Q6YGZ1).
T2 sequence (looked up): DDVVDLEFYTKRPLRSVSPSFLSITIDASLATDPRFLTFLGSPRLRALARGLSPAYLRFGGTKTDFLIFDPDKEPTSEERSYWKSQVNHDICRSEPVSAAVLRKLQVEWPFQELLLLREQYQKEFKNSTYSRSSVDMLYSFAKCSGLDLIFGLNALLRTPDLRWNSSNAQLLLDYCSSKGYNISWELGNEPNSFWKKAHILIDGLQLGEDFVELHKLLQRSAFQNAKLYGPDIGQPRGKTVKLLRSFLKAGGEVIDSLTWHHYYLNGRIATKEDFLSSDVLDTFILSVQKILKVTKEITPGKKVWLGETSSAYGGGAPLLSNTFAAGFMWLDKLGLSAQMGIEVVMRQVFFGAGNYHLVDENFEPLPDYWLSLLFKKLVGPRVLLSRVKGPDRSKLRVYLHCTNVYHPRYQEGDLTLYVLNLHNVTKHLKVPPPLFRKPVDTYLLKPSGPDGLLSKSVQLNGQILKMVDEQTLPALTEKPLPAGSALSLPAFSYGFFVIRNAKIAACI
Nature of the test: FACS on B16F10 AP3 cells, antibody 5 or 10 µg per ml, AlexaFluor 488 anti-human IgG.

The target in test [5] is T2, murine cell surface heparanase on B16F10 AP3 murine melanoma cells (murine). Nature of the test: FACS on B16F10 AP3 murine melanoma cells, AlexaFluor 488 anti-human IgG, % gated events [panel B16F10 AP3].

These are yes or no findings as the source states them, for the method shown. Some entries that bind do so weakly or less than the wild type.

B1: monoclonal antibody 10E9.1 (antibody, V domains shown)
VH: QVQLVQSGAEVKKPGASVKVSCKVSGYSLTELSIHWVRQAPGKGLEWMGGFDPEDGEIIFAQKFQGRVTLTEDISLDTAYMEVSSLRSEDTAVYYCATEGHDSGDYVGYYYYGLDVWGQGTTVTVSS
VL: DIQMTQSPSSLSASVGDRVTITCRASQDIRNFLAWYQQKPGKLPKLLIYAASTLQSGVPSRFSGSGSGTDFTLTISSLQPEDVASYYCQSHNSVPFTFGPGTKVDIR
As to B1, the binding entry in test [1], in test [2], in test [3] and in test [4] was “binds” throughout.

B2: 10E9.2 (antibody, V domains shown)
VH: QVQLVQSGAEVKKPGASVKVSCKVSGYSLTELSIHWVRQAPGKGLEWMGGFDPEDGEIIFAQKFQGRVTLTEDISLDTAYMEVSSLRSEDTAVYYCATEGHDSGDYVGYYYYGLDVWGQGTTVTVSS
VL: DIQMTQSPSSLSASVGDRVTITCRASQDIRNFLAWYQQKPGKLPKLLIYAASTLQSGVPSRFSGSGSGTDFTLTISSLQPEDVASYYCQSHNSVPFTFGPGTKVDIR
Regarding B2, in test [5], the binding result is given as “binds”.

The values above are taken from patent US20100233154A1, “TARGETED BINDING AGENTS DIRECTED TO HEPARANASE AND USES THEREOF 463” (MedImmune Limited, priority 2008, published 2010).
